Results deposited as PubChem BioAssay AID1159578 (Peter MacCallum Cancer Centre, 2015)
Screen: 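Knock-downs that alter how fast lymphatic endothelial cells migrate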 (primary screen). Cells: human lymphatic endothelial cells. Reagent: siRNA pool against human genes, 40 nM. Timing: 48 h after transfection. Detection: 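High-content imaging of dye-stained cells in a scratch assay measures filled wound area and nuclei per well; duplicate means given as ratio to mock and robust z-score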. Scale: migration robust z-score: higher = faster migration into the scratch; migration relative to mock: higher = more scratch area covered than mock; nuclei per well: higher = more cells in the well. Rule for the call: 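Pools averaging fewer than 3300 nuclei are never called; remaining pools count as changed when migration robust z lies outside -2 to 2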. Calls: active = migration changed; inactive = no migration change, or too few cells.
Here is one part, drawn at random, of about 18,000 reagents tested. Of all reagents, about 1,030 (5.7%) got an active call. 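Inactive calls also include pools with fewer than 3300 nuclei, whose migration was not assessed.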 The raw values are shown without normalisation. Reagent sequences are not shown.

The opening 2 entries, ahead of the listing:
| target | migration robust z-score | migration class with cell-count check | migration relative to mock | nuclei per well, duplicate mean | activity call |
| --- | --- | --- | --- | --- | --- |
| UACA | 0.06 | migration z between -2 and 2; enough cells | 0.9 | 6263 | inactive |
| ANKEF1 | 0.65 | migration z between -2 and 2; enough cells | 0.93 | 5648 | inactive |

The list itself, repeating the preview:
| target | migration robust z-score | migration class with cell-count check | migration relative to mock | nuclei per well, duplicate mean | activity call |
| --- | --- | --- | --- | --- | --- |
| UACA | 0.06 | migration z between -2 and 2; enough cells | 0.9 | 6263 | inactive |
| ANKEF1 | 0.65 | migration z between -2 and 2; enough cells | 0.93 | 5648 | inactive |
| OR2T10 | -0.6 | migration z between -2 and 2; enough cells | 0.73 | 4960 | inactive |
| UNC5CL | 0.6 | migration z between -2 and 2; enough cells | 1.04 | 5922 | inactive |
| TRIB3 | 0.26 | migration z between -2 and 2; enough cells | 0.86 | 5194 | inactive |
| SPTBN4 | -1.03 | migration z between -2 and 2; enough cells | 0.62 | 6458 | inactive |
| MIOS | -0.63 | migration z between -2 and 2; enough cells | 0.72 | 5278 | inactive |
| RPL17 | 0.04 | migration z between -2 and 2; enough cells | 0.9 | 5432 | inactive |
| H2BC10 | 1.4 | migration z between -2 and 2; enough cells | 1.25 | 4969 | inactive |
| LCE3C | -0.98 | migration z between -2 and 2; enough cells | 0.62 | 4747 | inactive |
| CHMP5 | 2.3 | migration z above 2; enough cells | 1.49 | 6914 | active |
| THOP1 | 0.39 | migration z between -2 and 2; enough cells | 0.88 | 5820 | inactive |
| CNKSR2 | 0.42 | migration z between -2 and 2; enough cells | 1 | 6351 | inactive |
| PSMC3 | -2.1 | migration z below -2; enough cells | 0.4 | 4844 | active |
| FRMD8 | 0.38 | migration z between -2 and 2; enough cells | 0.99 | 6336 | inactive |
| PEX5L | -1.42 | migration z between -2 and 2; enough cells | 0.52 | 3814 | inactive |
| ZNF83 | 0.24 | migration z between -2 and 2; enough cells | 0.85 | 6391 | inactive |
| FOXN1 | -0.34 | migration z between -2 and 2; enough cells | 0.74 | 6062 | inactive |
| MAGEA1 | -0.83 | migration z between -2 and 2; enough cells | 0.67 | 5966 | inactive |
| CD63 | 0.48 | migration z between -2 and 2; enough cells | 1.01 | 5960 | inactive |
| MAFB | 1.07 | migration z between -2 and 2; enough cells | 1.17 | 5903 | inactive |
| CLDN1 | -0.74 | migration z between -2 and 2; enough cells | 0.7 | 3522 | inactive |
| VPS50 | -0.68 | migration z between -2 and 2; enough cells | 0.71 | 6108 | inactive |
